Record: PubChem BioAssay AID743458 (Peter MacCallum Cancer Centre, 2014)
Purpose: 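Find knock-downs that make vorinostat-resistant colon cancer cells sensitive again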 (follow-up of hits). Cell system: human HCT116-VR colon cancer cells made resistant to vorinostat. Reagent: single siRNA or pool against human genes, 25 nM per single siRNA. Duration: about 72 h after transfection, including 24 h of drug. Treatment: vorinostat, 2.5 µM final, for 24 h. Detection: 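Cell viability by fluorescence and apoptosis by caspase 3/7 luminescence under vorinostat, background-corrected, averaged across two plate copies and given as fold change versus mock transfection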. Scale: viability relative to mock: higher = more living cells than mock; caspase activity relative to mock: higher = more apoptosis than mock. Call rule: 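Active means a reduced-viability or caspase-activation class, anything else inactive; classes could only be given to wells that looked healthy when left untreated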.
Shown is a random part of about 1,800 deposited reagents. 732 of them (41%) count as active. 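Calls are per siRNA reagent; a gene was deemed confirmed only if most of its four siRNAs scored.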 Reagents against one gene are numbered here.

After knock-down of CAPN12 #1 the results were viability relative to mock 0.74; caspase activity relative to mock 1.87; viability hit class no change; caspase hit class no change; inactive.
Depletion of CAPN12 #2 resulted in: viability relative to mock 0.66; caspase activity relative to mock 2.71; viability hit class no change; caspase hit class caspase activation; active.
With knock-down of CAPN12 #3, the screen gave viability relative to mock 0.88; caspase activity relative to mock 4.95; viability hit class no change; caspase hit class caspase activation; active.
After knock-down of CAPN12 #4, the screen gave viability relative to mock 0.4; caspase activity relative to mock 5.38; viability hit class reduced viability; caspase hit class caspase activation; active.
ALKBH5 #1 gave viability relative to mock 0.84; caspase activity relative to mock 1.46; viability hit class no change; caspase hit class no change; inactive.
Against ALKBH5 #2, the entry reads viability relative to mock 0.66; caspase activity relative to mock 2.79; viability hit class no change; caspase hit class no change; inactive.
For ALKBH5 #3, the entry reads viability relative to mock 0.94; caspase activity relative to mock 1; viability hit class no change; caspase hit class no change; inactive.
ALKBH5 #4 showed viability relative to mock 0.42; caspase activity relative to mock 4.66; viability hit class no change; caspase hit class no change; inactive.
VPS4A #1 showed viability relative to mock 0.97; caspase activity relative to mock 1.27; viability hit class no change; caspase hit class no change; inactive.
Knock-down of VPS4A #2 gave: viability relative to mock 0.76; caspase activity relative to mock 2.58; viability hit class no change; caspase hit class caspase activation; active.
Against VPS4A #3 the deposit lists viability relative to mock 0.6; caspase activity relative to mock 2.23; viability hit class no change; caspase hit class no change; inactive.
Depletion of VPS4A #4 resulted in: viability relative to mock 0.28; caspase activity relative to mock 3.48; viability hit class reduced viability; caspase hit class caspase activation; active.
Depletion of DNER #1 came out at: viability relative to mock 0.88; caspase activity relative to mock 1.52; viability hit class no change; caspase hit class no change; inactive.
For DNER #2 the deposit lists viability relative to mock 0.88; caspase activity relative to mock 0.92; viability hit class no change; caspase hit class no change; inactive.
Depletion of DNER #3 resulted in: viability relative to mock 0.2; caspase activity relative to mock 3.9; viability hit class no change; caspase hit class no change; inactive.
With knock-down of DNER #4 the results were viability relative to mock 0.79; caspase activity relative to mock 0.75; viability hit class no change; caspase hit class no change; inactive.

Records listed so far with an active call (5):
CAPN12 #2 → viability relative to mock = 0.66; caspase activity relative to mock = 2.71; viability hit class = no change; caspase hit class = caspase activation; Outcome = active
CAPN12 #3 → viability relative to mock = 0.88; caspase activity relative to mock = 4.95; viability hit class = no change; caspase hit class = caspase activation; Outcome = active
CAPN12 #4 → viability relative to mock = 0.4; caspase activity relative to mock = 5.38; viability hit class = reduced viability; caspase hit class = caspase activation; Outcome = active
VPS4A #2 → viability relative to mock = 0.76; caspase activity relative to mock = 2.58; viability hit class = no change; caspase hit class = caspase activation; Outcome = active
VPS4A #4 → viability relative to mock = 0.28; caspase activity relative to mock = 3.48; viability hit class = reduced viability; caspase hit class = caspase activation; Outcome = active
